PMC8934857
These are yes or no findings as the source states them, for the method shown. In cells and extracts the contact can be indirect. Some results given as binding are weak or reduced against the parent protein; the word gives no strength. Tags and fused reporters may be left off the sequences shown.

Chains of the proteins cited; added tags and fusions are not shown. Residues count along the entry.
UniProt P19438, residues 30-455: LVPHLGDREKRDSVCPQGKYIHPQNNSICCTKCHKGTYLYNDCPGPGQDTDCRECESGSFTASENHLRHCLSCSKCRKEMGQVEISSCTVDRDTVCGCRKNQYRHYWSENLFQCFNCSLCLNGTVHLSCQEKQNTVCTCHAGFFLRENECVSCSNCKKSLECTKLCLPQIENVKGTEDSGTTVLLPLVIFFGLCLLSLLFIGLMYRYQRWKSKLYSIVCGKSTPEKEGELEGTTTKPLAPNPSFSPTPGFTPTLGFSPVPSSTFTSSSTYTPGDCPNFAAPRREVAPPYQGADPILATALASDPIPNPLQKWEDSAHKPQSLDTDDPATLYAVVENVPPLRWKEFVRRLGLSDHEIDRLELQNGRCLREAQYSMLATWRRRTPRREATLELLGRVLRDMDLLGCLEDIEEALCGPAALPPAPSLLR

Biological target: HA-labelled TNFR1 (UniProt P19438)
Experiment: co-IP; exogenous co-IP from lysate of HEK293T cells transfected with ANXA1-Flag and/or TNFR1-HA plasmids; precipitated with anti-Flag or anti-HA antibody, Protein A/G PLUS-Agarose; western blot

binding: binds
B1: Flag-labelled ANXA1 (protein, UniProt P04083 1-346)
chain: MAMVSEFLKQAWFIENEEQEYVQTVKSSKGGPGSAVSPYPTFNPSSDVAALHKAIMVKGVDEATIIDILTKRNNAQRQQIKAAYLQETGKPLDETLKKALTGHLEEVVLALLKTPAQFDADELRAAMKGLGTDEDTLIEILASRTNKEIRDINRVYREELKRDLAKDITSDTSGDFRNALLSLAKGDRSEDFGVNEDLADSDARALYEAGERRKGTDVNVFNTILTTRSYPQLRRVFQKYTKYSKHDMNKVLDLELKGDIEKCLTAIVKCATSKPAFFAEKLHQAMKGVGTRHKALIRIMVSRSEIDMNDIKAFYQKMYGISLCQAILDETKGDYEKILVALCGGN
